In PubChem BioAssay AID2685 (National Center for Advancing Translational Sciences (NCATS), 2010):
This is one part of the list. The main result of the screen is listed elsewhere. These columns were measured beside it and carry no call. The list favours compounds with an active or inconclusive main result. Words in brackets tell the shape of the fitted curve; partial curves, single points and poor fits give uncertain potencies.

Experiment: qHTS Assay for Lipid Storage Modulators in Drosophila S3 Cells;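 for cell number change: cells counted by Cell Tracker Red CMTPX staining in the red channel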
Conditions: BODIPY lipid droplet fluorescence, 18-24 h; for cell number change: measured here: cell count max response, cells fed with added oleic acid
How it was run: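 Drosophila S3 cells got compounds at several concentrations plus oleic acid (400 uM solution). Laser-scanning cytometry with 488 nm excitation read lipid droplets at 500-530 nm and cells at 575-640 nm. Percent activity was relative to 20 uM Triacsin C.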

[1] = measured here: cell number channel AC50, cells fed with added oleic acid
[2] = measured here: lipid fluorescence (Fed channel) AC50, cells fed with added oleic acid

Structure (SMILES) | cell number change [%] | AC50 [1] | AC50 [2]
CCc1ccc(OCC(=O)N(Cc2ccccc2)C2CCS(=O)(=O)C2)cc1 (centres undefined) | 6.25 |  | 
Cc1ccc(/C=C2\SC(N3CCN(C(c4ccccc4)c4ccccc4)CC3)=NC2=O)o1 |  | 6.51 µM [rising, partial curve, poor fit] | 6.51 µM [rising, partial curve, poor fit]
COc1ccc(CCNS(=O)(=O)c2cn(C)c(=O)n(C)c2=O)cc1OC |  |  | 0.092 µM [falling, full curve]
O=[N+]([O-])c1ccc2c(c1)ncn2-c1ccccc1 | 9.69 |  | 29.1 µM [rising, single point]
CN1CCc2c(sc(NC(=O)c3cc4cc([N+](=O)[O-])ccc4s3)c2C(N)=O)C1 | -76.3 | 10.3 µM [falling, partial curve] | 9.2 µM [falling, partial curve]
Brc1ccc(OCc2cn3ccccc3n2)cc1 | -45.9 |  | 
COc1ccc2oc(C(=O)Nc3ccc(N4CCOCC4)cc3)c(C)c2c1 | 19.4 |  | 29.1 µM [rising, single point]
Cc1ccc(C(=O)N2CCN(c3ncccn3)CC2)cc1S(=O)(=O)N1CCCCC1 | 21.7 |  | 0.146 µM [falling, full curve, poor fit]
O=C(NC(=S)Nc1cccc(NC(=O)c2ccc(Cl)cc2Cl)c1)c1cccs1 | 1.58 |  | 25.9 µM [rising, partial curve, poor fit]
COc1ccc(CNCC(O)COCc2cccs2)cc1 (centres undefined) | 5.42 |  | 16.4 µM [falling, single point]
CCOc1ccc(CCNC(=O)C2CCCN(S(C)(=O)=O)C2)cc1OCC (centres undefined) | 9.15 |  | 5.8 µM [rising, single point]
CCc1ccccc1NC(=O)CN(C)C(=O)COC(=O)c1ccccc1Cl | 30.5 | 0.116 µM [falling, full curve, poor fit] | 0.146 µM [falling, full curve, poor fit]
O=C(CCNC(=O)c1ccc([N+](=O)[O-])cc1)Nc1cccc(S(=O)(=O)N2CCOCC2)c1 | 0.251 |  | 7.31 µM [rising, partial curve]
COc1ccc(NC(=O)NC2CCN(C(C)C)CC2)c(OC)c1 | 15.1 |  | 
CCN1CCN(C(=S)Nc2ccsc2C(=O)OC)CC1 | -26.1 |  | 
Oc1ccc(/C=N/N2CCN(Cc3ccccc3)CC2)cc1 | 7.66 |  | 29.1 µM [rising, single point]
COc1cc(OC)c(OC)cc1CNC(=O)c1cc(S(=O)(=O)N2CCOCC2)ccc1F | -31.5 |  | 29.1 µM [falling, single point]
O=C(CN1CCCCC1)N1CCCc2c1c(=O)oc1ccc(OCc3ccccc3)cc21 | -30.6 | 23.1 µM [falling, single point] | 29.1 µM [falling, single point]
COC(=O)c1cc(C(=O)Nc2ccc(S(N)(=O)=O)cc2)cc([N+](=O)[O-])c1 | 15 |  | 
CC(NC(=O)c1ccc2c(c1)OCO2)C(c1cccs1)N1CCN(c2ccccc2)CC1 (centres undefined) | 9.71 |  | 29.1 µM [rising, single point]

Structure (SMILES) | cell number change [%] | AC50 [1] | AC50 [2]
Cc1ccc(CNC(=O)c2nnc(CS(=O)(=O)c3ccccc3)o2)cc1 | 20.2 |  | 
COC(=O)CCc1c(C)[nH]c(=S)[nH]c1=O | 31.8 | 0.00411 µM [rising, full curve, poor fit] | 
CCOC(=O)C1CCN(C(=O)Nc2c(-c3ccccc3)noc2C)CC1 | -27.2 |  | 7.31 µM [falling, partial curve]
CCCN(Cc1nnc(-c2ccccc2Cl)o1)C(=O)c1cc(S(=O)(=O)N2CCOCC2)ccc1F | -50 | 29.1 µM [falling, single point] | 0.651 µM [falling, partial curve, poor fit]
CSCCC(N=C(NS(=O)(=O)c1ccccc1)c1ccccc1)C(=O)O (centres undefined) | -38.8 | 0.517 µM [falling, full curve] | 
CCN1CCc2nc(NC(=O)c3ccccc3)sc2C1 | 12.6 |  | 
O=C(/C=C1\SC(=O)NC1=O)Nc1ccc(F)cc1 | 18.6 |  | 
CC(C)(C)NC(=O)C1CCC(C)(C(=O)O)C1(C)C (centres undefined) | -205 | 20.6 µM [falling, partial curve] | 16.4 µM [falling, partial curve]
COc1ccc(CCNC(=O)COC(=O)c2cc(S(=O)(=O)N3CCCC3)ccc2O)cc1 | 31.2 | 32.6 µM [rising, single point] | 18.4 µM [rising, partial curve, poor fit]
CCN(CC)C(=O)COc1ccc(S(=O)(=O)N2CCOCC2)cc1 | 51.7 | 29.1 µM [rising, single point] | 29.1 µM [rising, single point]
COc1ccc(F)cc1C(=O)C1CCCN(Cc2c(C)n(C)n(-c3ccccc3)c2=O)C1 (centres undefined) | 34.8 | 20.6 µM [rising, partial curve, poor fit] | 
Cc1oc(-c2ccccc2)nc1CC(=O)O | -26.1 |  | 0.461 µM [falling, partial curve]
CCNC(=S)NS(=O)(=O)c1ccc(Cl)cc1 | 61.9 | 29.1 µM [rising, single point] | 
O=C1NC(=O)C(Cc2c[nH]c3ccccc23)N1 (centres undefined) | -10.5 |  | 
CC(=O)N1CCN(C(=O)c2cc3ccccc3o2)CC1 | -0.451 |  | 29.1 µM [rising, partial curve]
N#CCCn1cc(/C=C2\NC(=S)N(c3ccccc3)C2=O)c(-c2ccc(-c3ccccc3)cc2)n1 | -4 |  | 
COCCn1c(CN2CCc3ccccc3C2)nc2c1c(=O)n(C)c(=O)n2C | -26.4 |  | 
CC(C)C1COC(c2cccc3ccccc23)=N1 (centres undefined) | -35.8 | 29.1 µM [falling, single point] | 16.4 µM [rising, single point]
CCCCC1CCC(C(=O)N(CCCC)c2c(N)n(CCCC)c(=O)[nH]c2=O)CC1 (centres undefined) | 1.4 |  | 23.1 µM [falling, partial curve, poor fit]

Sorted by length of the SMILES (falling): 3 of the compounds above
Structure (SMILES) | cell number change [%] | AC50 [1] | AC50 [2]
CCCN(Cc1nnc(-c2ccccc2Cl)o1)C(=O)c1cc(S(=O)(=O)N2CCOCC2)ccc1F | -50 | 29.1 µM [falling, single point] | 0.651 µM [falling, partial curve, poor fit]
O=C(/C=C1\SC(=O)NC1=O)Nc1ccc(F)cc1 | 18.6 |  | 
CCN1CCc2nc(NC(=O)c3ccccc3)sc2C1 | 12.6 |  | 
